{
  "sequences": {"note": "Chains of the proteins cited; added tags and fusions are not shown. Lines headed by an entry give the natural chain unless they say otherwise; changes in a name come on top.", "UniProt Q9BQF6": "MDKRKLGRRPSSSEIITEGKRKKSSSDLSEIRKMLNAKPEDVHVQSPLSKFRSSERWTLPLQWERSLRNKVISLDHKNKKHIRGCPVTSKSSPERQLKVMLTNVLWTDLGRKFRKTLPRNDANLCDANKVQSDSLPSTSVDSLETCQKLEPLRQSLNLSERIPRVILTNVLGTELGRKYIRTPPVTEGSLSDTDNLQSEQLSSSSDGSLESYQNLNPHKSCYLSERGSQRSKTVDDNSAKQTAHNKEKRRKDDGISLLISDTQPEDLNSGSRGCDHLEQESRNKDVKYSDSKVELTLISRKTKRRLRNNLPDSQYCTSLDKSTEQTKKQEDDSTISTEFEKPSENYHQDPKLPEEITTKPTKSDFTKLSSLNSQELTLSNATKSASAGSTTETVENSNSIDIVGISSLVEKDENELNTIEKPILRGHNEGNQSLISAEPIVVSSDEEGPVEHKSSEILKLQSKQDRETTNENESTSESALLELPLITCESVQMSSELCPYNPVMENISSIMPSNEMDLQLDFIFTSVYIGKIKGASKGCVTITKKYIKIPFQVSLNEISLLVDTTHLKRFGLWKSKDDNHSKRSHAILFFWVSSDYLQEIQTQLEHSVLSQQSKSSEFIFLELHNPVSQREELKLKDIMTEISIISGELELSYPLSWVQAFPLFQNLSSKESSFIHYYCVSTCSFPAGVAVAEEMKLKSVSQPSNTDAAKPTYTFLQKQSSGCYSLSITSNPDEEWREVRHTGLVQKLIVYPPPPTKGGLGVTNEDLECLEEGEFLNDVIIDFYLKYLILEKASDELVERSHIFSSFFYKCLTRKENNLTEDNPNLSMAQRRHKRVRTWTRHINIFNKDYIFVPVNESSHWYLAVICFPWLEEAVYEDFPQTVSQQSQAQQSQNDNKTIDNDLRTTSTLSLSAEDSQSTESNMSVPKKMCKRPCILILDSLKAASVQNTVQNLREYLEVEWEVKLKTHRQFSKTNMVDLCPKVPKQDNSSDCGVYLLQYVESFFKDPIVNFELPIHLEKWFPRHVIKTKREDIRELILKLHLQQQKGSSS", "UniProt Q9BYT8, whole entry, looked up": "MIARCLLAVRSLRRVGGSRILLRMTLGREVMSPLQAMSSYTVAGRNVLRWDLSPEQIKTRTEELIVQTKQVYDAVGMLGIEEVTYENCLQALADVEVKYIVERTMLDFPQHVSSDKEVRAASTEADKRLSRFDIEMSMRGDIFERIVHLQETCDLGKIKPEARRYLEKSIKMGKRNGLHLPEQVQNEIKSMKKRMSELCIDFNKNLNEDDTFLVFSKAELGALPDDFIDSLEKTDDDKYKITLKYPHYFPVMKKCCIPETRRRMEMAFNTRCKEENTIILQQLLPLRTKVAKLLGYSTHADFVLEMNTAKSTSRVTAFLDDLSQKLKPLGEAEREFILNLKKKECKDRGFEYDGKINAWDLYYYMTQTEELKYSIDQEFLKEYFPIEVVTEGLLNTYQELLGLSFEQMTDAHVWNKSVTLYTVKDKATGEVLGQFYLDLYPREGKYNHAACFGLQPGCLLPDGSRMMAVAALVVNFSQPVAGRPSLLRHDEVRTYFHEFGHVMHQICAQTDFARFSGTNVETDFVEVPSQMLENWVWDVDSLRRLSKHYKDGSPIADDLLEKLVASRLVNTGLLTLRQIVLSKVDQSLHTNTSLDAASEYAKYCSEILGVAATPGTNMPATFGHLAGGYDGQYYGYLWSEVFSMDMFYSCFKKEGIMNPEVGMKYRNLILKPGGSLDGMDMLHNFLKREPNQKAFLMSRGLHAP", "UniProt Q99496": "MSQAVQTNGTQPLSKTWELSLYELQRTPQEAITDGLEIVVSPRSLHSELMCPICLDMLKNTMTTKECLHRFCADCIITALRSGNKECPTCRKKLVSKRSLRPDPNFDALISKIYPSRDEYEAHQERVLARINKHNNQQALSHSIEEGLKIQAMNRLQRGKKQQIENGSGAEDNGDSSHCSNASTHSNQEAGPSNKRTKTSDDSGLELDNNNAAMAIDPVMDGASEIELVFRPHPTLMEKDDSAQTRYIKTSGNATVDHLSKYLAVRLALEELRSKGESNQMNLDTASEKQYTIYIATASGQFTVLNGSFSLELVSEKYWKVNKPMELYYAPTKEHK", "UniProt Q99961": "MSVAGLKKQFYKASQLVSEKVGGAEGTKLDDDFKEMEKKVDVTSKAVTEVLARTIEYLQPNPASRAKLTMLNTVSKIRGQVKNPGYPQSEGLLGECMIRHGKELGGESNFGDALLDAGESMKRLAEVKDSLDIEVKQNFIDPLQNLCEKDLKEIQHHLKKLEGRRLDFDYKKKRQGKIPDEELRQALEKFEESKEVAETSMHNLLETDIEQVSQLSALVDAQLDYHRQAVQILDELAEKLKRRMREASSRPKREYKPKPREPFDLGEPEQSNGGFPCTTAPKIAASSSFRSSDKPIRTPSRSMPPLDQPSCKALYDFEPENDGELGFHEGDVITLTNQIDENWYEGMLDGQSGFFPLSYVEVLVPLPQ", "UniProt Q9BW92": "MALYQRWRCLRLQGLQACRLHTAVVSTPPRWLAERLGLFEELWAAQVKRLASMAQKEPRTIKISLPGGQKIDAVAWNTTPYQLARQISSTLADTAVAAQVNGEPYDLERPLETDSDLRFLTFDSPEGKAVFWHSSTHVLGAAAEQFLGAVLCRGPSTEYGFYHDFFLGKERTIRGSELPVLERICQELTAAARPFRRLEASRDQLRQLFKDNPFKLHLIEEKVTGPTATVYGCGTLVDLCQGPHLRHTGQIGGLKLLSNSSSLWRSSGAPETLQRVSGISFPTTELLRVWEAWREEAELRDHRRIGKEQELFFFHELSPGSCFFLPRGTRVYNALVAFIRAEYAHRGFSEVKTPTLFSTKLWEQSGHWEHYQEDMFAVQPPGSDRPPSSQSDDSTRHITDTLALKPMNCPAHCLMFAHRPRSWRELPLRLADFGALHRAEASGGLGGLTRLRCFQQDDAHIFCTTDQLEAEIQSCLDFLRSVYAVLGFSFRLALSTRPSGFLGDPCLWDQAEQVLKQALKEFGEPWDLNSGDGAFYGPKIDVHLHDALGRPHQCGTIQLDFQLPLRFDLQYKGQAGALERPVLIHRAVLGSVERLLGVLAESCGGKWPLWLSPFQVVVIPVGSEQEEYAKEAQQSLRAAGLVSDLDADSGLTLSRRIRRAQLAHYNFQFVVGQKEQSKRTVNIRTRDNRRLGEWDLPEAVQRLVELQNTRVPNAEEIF", "UniProt Q96T76": "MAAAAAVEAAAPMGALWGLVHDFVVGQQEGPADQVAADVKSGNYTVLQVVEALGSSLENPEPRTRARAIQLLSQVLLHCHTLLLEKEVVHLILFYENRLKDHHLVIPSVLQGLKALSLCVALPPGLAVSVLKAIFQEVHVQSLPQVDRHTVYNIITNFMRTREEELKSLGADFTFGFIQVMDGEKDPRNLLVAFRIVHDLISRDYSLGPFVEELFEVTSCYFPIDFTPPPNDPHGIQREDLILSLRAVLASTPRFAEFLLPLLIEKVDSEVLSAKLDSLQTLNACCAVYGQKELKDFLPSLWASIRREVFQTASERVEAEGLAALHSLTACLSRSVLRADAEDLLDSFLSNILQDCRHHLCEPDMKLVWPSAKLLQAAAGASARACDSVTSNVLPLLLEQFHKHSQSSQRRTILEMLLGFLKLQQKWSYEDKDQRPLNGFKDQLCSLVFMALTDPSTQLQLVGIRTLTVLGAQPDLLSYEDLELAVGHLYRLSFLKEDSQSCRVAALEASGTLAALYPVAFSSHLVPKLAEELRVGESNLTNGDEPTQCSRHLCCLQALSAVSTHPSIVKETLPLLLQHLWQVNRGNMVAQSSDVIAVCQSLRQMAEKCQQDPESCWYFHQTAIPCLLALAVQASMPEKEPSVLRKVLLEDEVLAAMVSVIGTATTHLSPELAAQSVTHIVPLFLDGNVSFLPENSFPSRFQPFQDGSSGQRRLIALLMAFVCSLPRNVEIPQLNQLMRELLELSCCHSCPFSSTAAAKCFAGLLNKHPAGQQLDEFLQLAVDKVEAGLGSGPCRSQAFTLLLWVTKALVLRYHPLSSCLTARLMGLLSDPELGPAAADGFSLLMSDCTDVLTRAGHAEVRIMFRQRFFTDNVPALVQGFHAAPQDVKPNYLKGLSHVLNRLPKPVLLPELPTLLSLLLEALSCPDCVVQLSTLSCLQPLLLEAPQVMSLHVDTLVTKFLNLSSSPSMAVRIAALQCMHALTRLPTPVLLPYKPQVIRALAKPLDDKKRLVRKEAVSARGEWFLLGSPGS", "UniProt Q99615": "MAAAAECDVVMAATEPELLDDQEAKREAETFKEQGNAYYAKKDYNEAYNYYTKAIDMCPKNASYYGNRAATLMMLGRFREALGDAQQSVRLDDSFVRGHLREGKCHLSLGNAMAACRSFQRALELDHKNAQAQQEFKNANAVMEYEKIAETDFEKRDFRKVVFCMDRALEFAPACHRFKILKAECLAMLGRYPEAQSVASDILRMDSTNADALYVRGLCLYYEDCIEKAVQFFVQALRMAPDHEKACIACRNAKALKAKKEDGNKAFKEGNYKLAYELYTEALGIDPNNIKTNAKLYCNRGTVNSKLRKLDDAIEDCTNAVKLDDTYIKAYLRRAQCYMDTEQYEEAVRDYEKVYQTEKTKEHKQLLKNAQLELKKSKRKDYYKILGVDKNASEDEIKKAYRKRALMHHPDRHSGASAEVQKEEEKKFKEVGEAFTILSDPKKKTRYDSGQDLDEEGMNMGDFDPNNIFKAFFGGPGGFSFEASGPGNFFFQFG", "UniProt Q99470": "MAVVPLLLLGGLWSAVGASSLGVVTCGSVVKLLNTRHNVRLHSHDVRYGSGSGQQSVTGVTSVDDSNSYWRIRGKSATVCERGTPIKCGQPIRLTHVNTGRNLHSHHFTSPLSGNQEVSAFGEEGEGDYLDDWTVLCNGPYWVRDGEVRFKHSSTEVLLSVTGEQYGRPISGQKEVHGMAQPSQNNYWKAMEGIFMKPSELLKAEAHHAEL", "UniProt Q9BYV9": "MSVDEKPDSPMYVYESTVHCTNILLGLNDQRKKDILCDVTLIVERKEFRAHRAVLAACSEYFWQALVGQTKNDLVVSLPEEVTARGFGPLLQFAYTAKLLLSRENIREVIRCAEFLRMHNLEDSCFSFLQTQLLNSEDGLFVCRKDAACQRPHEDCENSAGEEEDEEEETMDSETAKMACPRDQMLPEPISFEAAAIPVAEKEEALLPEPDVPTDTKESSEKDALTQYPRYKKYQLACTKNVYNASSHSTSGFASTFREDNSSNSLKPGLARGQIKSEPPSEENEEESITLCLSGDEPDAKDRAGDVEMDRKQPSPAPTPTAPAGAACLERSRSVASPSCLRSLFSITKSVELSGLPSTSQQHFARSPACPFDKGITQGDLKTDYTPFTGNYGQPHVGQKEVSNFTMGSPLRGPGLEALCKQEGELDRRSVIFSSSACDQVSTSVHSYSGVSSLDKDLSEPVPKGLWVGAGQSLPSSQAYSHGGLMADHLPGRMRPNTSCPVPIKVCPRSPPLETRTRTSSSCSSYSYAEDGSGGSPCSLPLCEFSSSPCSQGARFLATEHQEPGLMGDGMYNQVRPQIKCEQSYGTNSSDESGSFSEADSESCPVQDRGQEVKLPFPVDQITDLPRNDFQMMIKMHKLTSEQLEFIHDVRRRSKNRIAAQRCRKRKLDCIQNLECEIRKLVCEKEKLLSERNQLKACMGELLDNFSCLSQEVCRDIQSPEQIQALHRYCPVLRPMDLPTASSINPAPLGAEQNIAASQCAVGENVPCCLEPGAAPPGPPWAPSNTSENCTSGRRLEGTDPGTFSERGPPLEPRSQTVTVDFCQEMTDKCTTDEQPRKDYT", "UniProt Q9BYM8": "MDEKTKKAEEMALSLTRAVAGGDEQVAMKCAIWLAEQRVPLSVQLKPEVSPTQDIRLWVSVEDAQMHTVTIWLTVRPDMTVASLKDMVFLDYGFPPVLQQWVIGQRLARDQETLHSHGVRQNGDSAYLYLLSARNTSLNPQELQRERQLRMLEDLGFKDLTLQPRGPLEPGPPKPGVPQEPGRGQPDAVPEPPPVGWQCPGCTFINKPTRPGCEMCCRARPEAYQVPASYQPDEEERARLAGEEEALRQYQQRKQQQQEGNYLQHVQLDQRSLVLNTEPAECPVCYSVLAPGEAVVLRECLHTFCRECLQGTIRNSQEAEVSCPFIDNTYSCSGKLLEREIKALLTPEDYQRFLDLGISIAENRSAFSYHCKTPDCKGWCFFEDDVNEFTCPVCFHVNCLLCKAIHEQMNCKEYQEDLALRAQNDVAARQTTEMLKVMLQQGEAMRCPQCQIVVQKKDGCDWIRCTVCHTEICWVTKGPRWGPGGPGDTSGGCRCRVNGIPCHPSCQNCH", "UniProt Q99943": "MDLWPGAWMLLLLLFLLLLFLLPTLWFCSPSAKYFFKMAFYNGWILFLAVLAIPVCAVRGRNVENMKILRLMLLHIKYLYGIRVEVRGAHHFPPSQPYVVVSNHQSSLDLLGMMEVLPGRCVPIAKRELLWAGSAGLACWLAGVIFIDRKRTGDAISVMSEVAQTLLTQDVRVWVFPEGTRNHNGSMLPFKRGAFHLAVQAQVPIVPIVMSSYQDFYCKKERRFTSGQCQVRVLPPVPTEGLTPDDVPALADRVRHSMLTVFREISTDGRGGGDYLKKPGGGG"},
  "source": "the supplement of paper PMC6411743",
  "note": "± gives the standard deviation of the averaged measurements. The entries are a selection whose mix differs from that of the whole data set.",
  "data": [
    {"compound": "Nc1ncnc2c1ncn2[C@@H]1O[C@H](COP(=O)(O)OP(=O)(O)OP(=O)(O)O)[C@@H](O)[C@H]1O [adenosine triphosphate]", "test": "NP40-soluble protein abundance relative to vehicle (solubility fold change) (ratio); higher = more soluble protein in presence of ATP", "settings": "concentration: 10mM", "how_it_was_run": "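Crude Jurkat lysate, prepared by Dounce homogenisation, was exposed to eight concentrations from 0.1 to 10 mM for 10 min at room temperature and then 3 min at 37 °C. Solubilisation used 0.8% NP40 with benzonase for 60 min at 4 °C, followed by ultracentrifugation and TMT labelling of the supernatant for LC-MS/MS. After vsn normalisation of intensities, each value is the fold change against the detergent-processed vehicle within each replicate, across three independent experiments.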", "values": [
      {"target": "UniProt Q9BQF6 and related entries", "NP40-soluble protein abundance": "1.18 ± 0.092"},
      {"target": "UniProt Q9BZ29-4|A0A088AWN3|A0A0A0MRA7|A0A0A0MSY4|Q9BZ29 and related entries", "NP40-soluble protein abundance": "1.02 ± 0.074"},
      {"target": "TRMT61B (UniProt Q9BVS5)", "NP40-soluble protein abundance": "1.05 ± 0.045"},
      {"target": "UniProt Q9BYV8", "NP40-soluble protein abundance": "0.992 ± 0.021"},
      {"target": "UHRF1 (UniProt Q96T88)", "NP40-soluble protein abundance": "1.15 ± 0.077"},
      {"target": "POP1 (UniProt Q99575)", "NP40-soluble protein abundance": "1.11 ± 0.067"},
      {"target": "NLN (UniProt Q9BYT8)", "NP40-soluble protein abundance": "0.964 ± 0.049"},
      {"target": "RNF2 (UniProt Q99496)", "NP40-soluble protein abundance": "1.32 ± 0.055"},
      {"target": "UniProt Q9BZL1", "NP40-soluble protein abundance": "1.073 ± 0.0023"},
      {"target": "SIKE1 (UniProt Q9BRV8)", "NP40-soluble protein abundance": "0.89 ± 0.046"},
      {"target": "UniProt Q9BQI0 and related entries", "NP40-soluble protein abundance": "0.869 ± 0.13"},
      {"target": "UniProt Q9BQC6", "NP40-soluble protein abundance": "0.853 ± 0.15"},
      {"target": "SH3GL1 (UniProt Q99961)", "NP40-soluble protein abundance": "0.94 ± 0.022"},
      {"target": "SMAD5 (UniProt Q99717)", "NP40-soluble protein abundance": "1.07 ± 0.12"},
      {"target": "TARS2 (UniProt Q9BW92)", "NP40-soluble protein abundance": "1.05 ± 0.048"},
      {"target": "MRPL9 (UniProt Q9BYD2)", "NP40-soluble protein abundance": "0.866 ± 0.15"},
      {"target": "POLR3C (UniProt Q9BUI4)", "NP40-soluble protein abundance": "1.02 ± 0.051"},
      {"target": "GRWD1 (UniProt Q9BQ67)", "NP40-soluble protein abundance": "1.14 ± 0.023"},
      {"target": "UniProt Q96T76 and related entries", "NP40-soluble protein abundance": "0.944 ± 0.057"},
      {"target": "UniProt Q9BXW9 and related entries", "NP40-soluble protein abundance": "0.929 ± 0.023"},
      {"target": "DNAJC7 (UniProt Q99615)", "NP40-soluble protein abundance": "0.919 ± 0.036"},
      {"target": "SDF2 (UniProt Q99470)", "NP40-soluble protein abundance": "1.01 ± 0.068"},
      {"target": "BACH2 (UniProt Q9BYV9)", "NP40-soluble protein abundance": "0.986 ± 0.069"},
      {"target": "UniProt Q99729-3|Q99729", "NP40-soluble protein abundance": "0.942 ± 0.02"},
      {"target": "UniProt Q9BRA0 and related entries", "NP40-soluble protein abundance": "0.892 ± 0.082"},
      {"target": "VAT1 (UniProt Q99536)", "NP40-soluble protein abundance": "0.94 ± 0.051"},
      {"target": "RBCK1 (UniProt Q9BYM8)", "NP40-soluble protein abundance": "0.95 ± 0.04"},
      {"target": "UniProt Q99873-3|Q99873-4", "NP40-soluble protein abundance": "1.02 ± 0.076"},
      {"target": "UniProt Q9BYX2 and related entries", "NP40-soluble protein abundance": "1.01 ± 0.099"},
      {"target": "UniProt Q99708-3|I6L8A6 and related entries", "NP40-soluble protein abundance": "0.925 ± 0.082"},
      {"target": "BRIP1 (UniProt Q9BX63)", "NP40-soluble protein abundance": "1.05 ± 0.095"},
      {"target": "AGPAT1 (UniProt Q99943)", "NP40-soluble protein abundance": "0.9596 ± 0.004"},
      {"target": "UniProt Q9BRR9-2|Q9BRR9-4|Q9BRR9-5|R4GN15", "NP40-soluble protein abundance": "0.859 ± 0.073"},
      {"target": "PSMG3 (UniProt Q9BT73)", "NP40-soluble protein abundance": "0.994 ± 0.015"}
    ]}
  ]
}
